Test results reported in US12593865B2, “Member for flavor inhalation article, flavor inhalation article, phenol scavenger for flavor inhalation article, and method for producing flavor inhalation article” (Japan Tobacco Inc., priority 2019, dated 2026).
Read-outs that look alike come from different tables or passages of the source.

Experiment: Evaluation of migration amount into shreds (sealed screw tube bottle, gas chromatography)
[1] = 0.5 mL substance with 560 mg tobacco shreds in sealed bottle, 3 weeks at 55° C. and 60% RH

Structure (SMILES)	Migration Amount into Tobacco Shreds [1]	Migration Amount into Tobacco Shreds
CC(O)CCO (stereo not shown) [1,3-butanediol]	0.252 mmol/cig.	–
CCOC(=O)CCC(=O)OCC [Diethyl succinate, diethyl succinate]	0.105 mmol/cig.	–
CC(O)CO (stereo not shown) [Propylene glycol, propylene glycol]	0.774 mmol/cig.	–
OCCO [Ethylene glycol, ethylene glycol]	–	0.895 mmol/cig.
